{"source": "PubChem BioAssay AID1508597 (Cure First, 2020)", "assay": "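Genes whose silencing sensitises or protects ovarian cancer cells against rucaparib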 (primary screen)", "cell system": "human ovarian carcinoma lines grown from tumours: OCI-P5x (papillary serous) and OCI-C5x (clear cell)", "reagent": "siRNA pool against human genes, 1.25 pmol siRNA per well", "timing": "72 h or 96 h, depending on the cell culture", "treatment": "rucaparib 20 µM (about IC30) or vehicle, present until read-out", "measurement": "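ATP luminescence measured at 72 or 96 h according to the culture, then normalised and expressed as percent viability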", "reading the numbers": "viability, normalised: higher = more viable cells remaining", "call rule": "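a well counts as a hit if its normalised viability is under 80 percent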", "meaning of the calls": "active = viability under 80%; inactive = viability 80% or more", "note": "The whole screen tested about 2,100 reagents; shown is a part drawn at random. 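Calls flag viability under 80% in either arm, not effects specific to rucaparib; the reference for percent is not stated.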 A reagent listed more than once was tested more than once; the source does not tell the runs apart. Reagent sequences are not shown. Not given: the 100% reference."}
{"gene": "APC (GeneID 324)", "rucaparib or vehicle": "Rucaparib", "cell line": "OCI-C5x (clear cell)", "technical replicate": "1", "viability, normalised (%)": 52.6, "call": "active"}
{"gene": "APC (GeneID 324)", "rucaparib or vehicle": "Rucaparib", "cell line": "OCI-C5x (clear cell)", "technical replicate": "1", "viability, normalised (%)": 52, "call": "active"}
{"gene": "APC (GeneID 324)", "rucaparib or vehicle": "Rucaparib", "cell line": "OCI-C5x (clear cell)", "technical replicate": "2", "viability, normalised (%)": 38.5, "call": "active"}
{"gene": "APC (GeneID 324)", "rucaparib or vehicle": "Rucaparib", "cell line": "OCI-C5x (clear cell)", "technical replicate": "2", "viability, normalised (%)": 56.7, "call": "active"}
{"gene": "APC (GeneID 324)", "rucaparib or vehicle": "Rucaparib", "cell line": "OCI-C5x (clear cell)", "technical replicate": "3", "viability, normalised (%)": 46.4, "call": "active"}
{"gene": "APC (GeneID 324)", "rucaparib or vehicle": "Rucaparib", "cell line": "OCI-C5x (clear cell)", "technical replicate": "3", "viability, normalised (%)": 37.7, "call": "active"}
{"gene": "APC (GeneID 324)", "rucaparib or vehicle": "Rucaparib", "cell line": "OCI-P5x (serous)", "technical replicate": "1", "viability, normalised (%)": 63.7, "call": "active"}
{"gene": "APC (GeneID 324)", "rucaparib or vehicle": "Rucaparib", "cell line": "OCI-P5x (serous)", "technical replicate": "1", "viability, normalised (%)": 61.2, "call": "active"}
{"gene": "APC (GeneID 324)", "rucaparib or vehicle": "Rucaparib", "cell line": "OCI-P5x (serous)", "technical replicate": "2", "viability, normalised (%)": 53.2, "call": "active"}
{"gene": "APC (GeneID 324)", "rucaparib or vehicle": "Rucaparib", "cell line": "OCI-P5x (serous)", "technical replicate": "2", "viability, normalised (%)": 83.2, "call": "inactive"}
{"gene": "APC (GeneID 324)", "rucaparib or vehicle": "Rucaparib", "cell line": "OCI-P5x (serous)", "technical replicate": "3", "viability, normalised (%)": 74.7, "call": "active"}
{"gene": "APC (GeneID 324)", "rucaparib or vehicle": "Rucaparib", "cell line": "OCI-P5x (serous)", "technical replicate": "3", "viability, normalised (%)": 51, "call": "active"}
{"gene": "APC (GeneID 324)", "rucaparib or vehicle": "Vehicle", "cell line": "OCI-C5x (clear cell)", "technical replicate": "1", "viability, normalised (%)": 40, "call": "active"}
{"gene": "APC (GeneID 324)", "rucaparib or vehicle": "Vehicle", "cell line": "OCI-C5x (clear cell)", "technical replicate": "1", "viability, normalised (%)": 38.1, "call": "active"}
{"gene": "APC (GeneID 324)", "rucaparib or vehicle": "Vehicle", "cell line": "OCI-C5x (clear cell)", "technical replicate": "2", "viability, normalised (%)": 49.5, "call": "active"}
{"gene": "APC (GeneID 324)", "rucaparib or vehicle": "Vehicle", "cell line": "OCI-C5x (clear cell)", "technical replicate": "2", "viability, normalised (%)": 36.8, "call": "active"}
{"gene": "APC (GeneID 324)", "rucaparib or vehicle": "Vehicle", "cell line": "OCI-C5x (clear cell)", "technical replicate": "3", "viability, normalised (%)": 33.9, "call": "active"}
{"gene": "APC (GeneID 324)", "rucaparib or vehicle": "Vehicle", "cell line": "OCI-C5x (clear cell)", "technical replicate": "3", "viability, normalised (%)": 46.5, "call": "active"}
{"gene": "APC (GeneID 324)", "rucaparib or vehicle": "Vehicle", "cell line": "OCI-P5x (serous)", "technical replicate": "1", "viability, normalised (%)": 44.2, "call": "active"}
{"gene": "APC (GeneID 324)", "rucaparib or vehicle": "Vehicle", "cell line": "OCI-P5x (serous)", "technical replicate": "1", "viability, normalised (%)": 63.2, "call": "active"}
{"gene": "APC (GeneID 324)", "rucaparib or vehicle": "Vehicle", "cell line": "OCI-P5x (serous)", "technical replicate": "2", "viability, normalised (%)": 41, "call": "active"}
{"gene": "APC (GeneID 324)", "rucaparib or vehicle": "Vehicle", "cell line": "OCI-P5x (serous)", "technical replicate": "2", "viability, normalised (%)": 47.1, "call": "active"}
{"gene": "APC (GeneID 324)", "rucaparib or vehicle": "Vehicle", "cell line": "OCI-P5x (serous)", "technical replicate": "3", "viability, normalised (%)": 50, "call": "active"}
{"gene": "APC (GeneID 324)", "rucaparib or vehicle": "Vehicle", "cell line": "OCI-P5x (serous)", "technical replicate": "3", "viability, normalised (%)": 46.7, "call": "active"}
